According to US20190315873A1 (AGOMAB THERAPEUTICS, published 2019):
Results are given in words; binding and its absence hold for the method and conditions named. Some binding calls cover weakened binding; strength is not graded here.

Protein sequences, listed by entry. Tags and fused reporters are not part of them. Lines headed by an entry give the natural chain unless they say otherwise; changes in a name come on top. Residues count along the entry.
UniProt P08581: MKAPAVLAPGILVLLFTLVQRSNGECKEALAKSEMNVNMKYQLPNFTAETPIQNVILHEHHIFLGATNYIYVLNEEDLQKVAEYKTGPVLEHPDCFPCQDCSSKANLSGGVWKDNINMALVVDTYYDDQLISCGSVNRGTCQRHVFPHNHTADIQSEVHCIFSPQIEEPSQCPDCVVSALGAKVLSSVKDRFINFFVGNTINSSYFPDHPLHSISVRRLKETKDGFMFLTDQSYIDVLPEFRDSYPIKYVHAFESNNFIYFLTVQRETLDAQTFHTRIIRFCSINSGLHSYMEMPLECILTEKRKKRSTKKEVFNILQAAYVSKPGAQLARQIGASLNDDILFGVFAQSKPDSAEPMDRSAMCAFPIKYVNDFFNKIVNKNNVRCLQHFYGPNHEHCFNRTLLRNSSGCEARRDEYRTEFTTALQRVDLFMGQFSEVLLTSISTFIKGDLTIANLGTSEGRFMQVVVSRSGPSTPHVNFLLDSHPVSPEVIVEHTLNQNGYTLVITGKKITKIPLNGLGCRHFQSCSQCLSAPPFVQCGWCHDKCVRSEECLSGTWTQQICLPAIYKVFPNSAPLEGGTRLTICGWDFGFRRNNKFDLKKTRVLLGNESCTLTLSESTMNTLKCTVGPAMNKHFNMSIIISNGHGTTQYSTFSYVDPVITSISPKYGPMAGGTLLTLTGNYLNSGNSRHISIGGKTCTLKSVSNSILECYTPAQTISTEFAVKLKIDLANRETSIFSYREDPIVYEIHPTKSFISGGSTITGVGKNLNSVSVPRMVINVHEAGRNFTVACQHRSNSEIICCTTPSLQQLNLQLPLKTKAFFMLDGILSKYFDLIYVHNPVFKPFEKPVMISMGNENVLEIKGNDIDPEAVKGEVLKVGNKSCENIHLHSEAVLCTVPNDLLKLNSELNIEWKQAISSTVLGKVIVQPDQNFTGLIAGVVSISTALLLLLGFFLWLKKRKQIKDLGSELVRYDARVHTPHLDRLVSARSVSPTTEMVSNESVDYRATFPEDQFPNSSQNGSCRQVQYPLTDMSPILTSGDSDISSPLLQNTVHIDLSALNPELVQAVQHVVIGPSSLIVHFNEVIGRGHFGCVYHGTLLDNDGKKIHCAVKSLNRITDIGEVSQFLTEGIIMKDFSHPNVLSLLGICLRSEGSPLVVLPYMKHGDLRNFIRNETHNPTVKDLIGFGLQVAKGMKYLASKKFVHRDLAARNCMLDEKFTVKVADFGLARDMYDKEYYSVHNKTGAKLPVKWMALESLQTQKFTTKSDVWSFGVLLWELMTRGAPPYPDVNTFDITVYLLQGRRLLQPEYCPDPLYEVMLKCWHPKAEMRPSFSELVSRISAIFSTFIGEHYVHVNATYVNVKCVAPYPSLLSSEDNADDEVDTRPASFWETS
human MET on A549 human lung carcinoma cells: residues 25-1390 of P08581
Decoy MET (the entire human MET ECD): residues 25-932 of P08581
SEMA-PSI-IPT 1-2 (human MET ECD lacking IPT domains 3 and 4): residues 25-741 of P08581
SEMA-PSI (human MET ECD lacking IPT domains 1-4): residues 25-562 of P08581
isolated SEMA domain of human MET: residues 27-515 of P08581
UniProt P16056, residues 25-1379: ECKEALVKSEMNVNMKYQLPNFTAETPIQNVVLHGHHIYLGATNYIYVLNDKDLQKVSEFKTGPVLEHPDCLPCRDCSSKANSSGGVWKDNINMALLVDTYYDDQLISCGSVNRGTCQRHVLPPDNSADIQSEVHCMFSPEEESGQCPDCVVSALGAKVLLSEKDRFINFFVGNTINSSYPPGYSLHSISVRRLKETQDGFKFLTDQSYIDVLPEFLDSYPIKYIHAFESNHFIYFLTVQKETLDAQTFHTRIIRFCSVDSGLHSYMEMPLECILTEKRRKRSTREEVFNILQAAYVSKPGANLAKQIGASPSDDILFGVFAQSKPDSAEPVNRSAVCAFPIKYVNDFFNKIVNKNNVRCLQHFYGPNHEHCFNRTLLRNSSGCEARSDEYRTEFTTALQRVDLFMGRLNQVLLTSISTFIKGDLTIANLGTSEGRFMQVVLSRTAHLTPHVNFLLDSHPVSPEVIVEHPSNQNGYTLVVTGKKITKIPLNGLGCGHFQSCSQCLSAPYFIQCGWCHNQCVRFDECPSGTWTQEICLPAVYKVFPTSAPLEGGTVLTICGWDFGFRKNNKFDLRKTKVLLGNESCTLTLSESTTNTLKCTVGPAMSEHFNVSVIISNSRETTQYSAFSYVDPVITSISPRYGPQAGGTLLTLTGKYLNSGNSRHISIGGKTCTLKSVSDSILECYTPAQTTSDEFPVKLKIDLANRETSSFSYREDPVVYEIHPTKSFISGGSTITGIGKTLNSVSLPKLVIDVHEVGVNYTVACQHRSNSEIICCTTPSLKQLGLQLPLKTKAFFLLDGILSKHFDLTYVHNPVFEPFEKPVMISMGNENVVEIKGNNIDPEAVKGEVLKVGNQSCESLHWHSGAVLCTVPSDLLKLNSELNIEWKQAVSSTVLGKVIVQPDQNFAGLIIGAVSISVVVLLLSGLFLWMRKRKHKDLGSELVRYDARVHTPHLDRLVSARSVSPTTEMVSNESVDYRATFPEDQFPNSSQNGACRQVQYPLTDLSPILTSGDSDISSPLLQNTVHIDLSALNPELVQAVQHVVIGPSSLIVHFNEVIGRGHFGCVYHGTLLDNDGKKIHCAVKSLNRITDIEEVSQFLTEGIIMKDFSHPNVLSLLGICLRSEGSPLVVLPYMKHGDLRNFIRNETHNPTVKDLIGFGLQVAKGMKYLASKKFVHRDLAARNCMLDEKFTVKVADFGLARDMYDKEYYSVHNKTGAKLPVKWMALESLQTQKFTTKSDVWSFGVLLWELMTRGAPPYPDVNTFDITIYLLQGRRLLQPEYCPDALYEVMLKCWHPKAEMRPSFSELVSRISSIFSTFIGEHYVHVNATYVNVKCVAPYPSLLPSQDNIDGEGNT

Key:
[1] = molecular target: monkey MET ECD (cynomolgus monkey); assay: ELISA on MET ECD (FIG. 29)
[2] = molecular target: monkey MET ECD (cynomolgus monkey); assay: ELISA: MET ECD immobilized (100 ng/well), mAb in human IgG1/lambda format in solution (0-40 nM), HRP anti-human Fc
[3] = molecular target: SEMA-PSI-IPT 1-2 (human MET ECD lacking IPT domains 3 and 4) (human) (UniProt P08581); assay: ELISA on MET deletion mutant
[4] = molecular target: SEMA-PSI (human MET ECD lacking IPT domains 1-4) (human) (UniProt P08581); assay: ELISA on MET deletion mutant
[5] = molecular target: Decoy MET (the entire human MET ECD) (human) (UniProt P08581); assay: ELISA on MET deletion mutant
[6] = molecular target: isolated SEMA domain of human MET (human) (UniProt P08581); assay: ELISA on MET deletion mutant
[7] = molecular target: mouse MET on MLP29 mouse liver precursor cells (mouse) (UniProt P16056); assay: flow cytometry, MLP29 cells
[8] = molecular target: human MET on A549 human lung carcinoma cells (human) (UniProt P08581); assay: flow cytometry, A549 cells

Measured: binding

B1: 71C3 llama-human chimeric mAb (human IgG1/lambda) (antibody, V domains shown)
VH: QLQLVESGGGLVQPGGSLRLSCAASGFTFSSHAMSWVRQAPGKGLEWVSAINSGGGSTSYADSVKGRFTISRDNAKNTLYLQMNSLKPEDTAVYYCAKELRFDLARYTDYEAWDYWGQGTQVTVSS
VL: SYELTQPSALSVTLGQTAKITCQGGSLGSSYAHWYQQKPGQAPVLVIYDDDSRPSGIPERFSGSSSGGTATLTISGAQAEDEGDYYCQSADSSGNAAVFGGGTHLTVLQ
binds: all assays above

B2: 71D4 llama-human chimeric mAb (human IgG1/lambda) (antibody, V domains shown)
VH: ELQLVESGGGLVQPGGSLRLSCAASGFTFSGYGMSWVRQAPGKGLEWVSDINSGGGSTSYADSVKGRFTISRDNAKNTLYLQMNSLKPEDTAVYYCAKDMRLYLARYNDYEAWDYWGQGTQVTVSS
VL: SSALTQPSALSVTLGQTAKITCQGGSLGSSYAHWYQQKPGQAPVLVIYDDDSRPSGIPERFSGSSSGGTATLTISGAQAEDEGDYYCQSADSSGNAAVFGGGTHLTVLQ
binds: all assays above

B3: 71A3 llama-human chimeric mAb (human IgG1/lambda) (antibody, V domains shown)
VH: EVQLVESGGGLVQPGGSLRLSCAASGFSFKDYDITWVRQAPGKGLEWVSTITSRSGSTSYVDSVKGRFTISGDNAKNTLYLQMNSLKPEDTAVYYCAKVYATTWDVGPLGYGMDYWGKGTLVTVSS
VL: SYELTQPSALSVTLGQTAKITCQGGSLGSSYAHWYQQKPGQAPVLVIYDDDSRPSGIPERFSGSSSGGTATLTISGAQAEDEGDYYCQSADSSGNAAVFGGGTHLTVLQ
binds: all assays above

B4: 76H10 llama-human chimeric mAb (human IgG1/lambda) (antibody, V domains shown)
VH: QLQLVESGGGLVQPGGSLRVSCTASGFTFNTYYMTWVRQAPGKGLEWVSDINSGGGTYYADSVKGRFTISRDNAKNTLYLQMNSLKPEDTALYYCVRVRIWPVGYDYWGQGTQVTVSS
VL: QAVVTQEPSLSVSPGGTVTLTCGLSSGSVTTSNYPGWFQQTPGQAPRTLIYNTNNRHSGVPSRFSGSISGNKAALTITGAQPEDEADYYCSLYTGSYTTVFGGGTHLTVLQ
not listed: [6]
binds: all other assays above

B5: 76G7 llama-human chimeric mAb (human IgG1/lambda) (antibody, V domains shown)
VH: QVQLVESGGNLVQPGGSLRLSCAASGFTFSNYYMSWVRQAPGKGLEWVSDIYSDGSTTWYSDSVKGRFTISRDNAKNTLSLQMNSLKSEDTAVYYCARVKIYPGGYDAWGQGTQVTVSS
VL: QAGLTQPPSVSGSPGKTVTISCAGNSSDVGYGNYVSWYQQFPGMAPKLLIYLVNKRASGITDRFSGSKSGNTASLTISGLQSEDEADYYCASYTGSNNIVFGGGTHLTVLQ
binds: [3] | [4] | [5] | [7] | [8]

B6: 71G12 llama-human chimeric mAb (human IgG1/kappa) (antibody, V domains shown)
VH: QVQLQESGGDLVQPGGSLRVSCVVSGFTFSRYYMSWVRQAPGKGLEWVSSIDSYGYSTYYTDSVKGRFTISRDNAKNTLYLQMNSLKPEDTALYYCARAKTTWSYDYWGQGTQVTVSS
VL: EIVLTQSPSSVTASVGGKVTINCKSSQSVFIASNQKTYLNWYQQRPGQSPRLVISYASTRESGIPDRFSGSGSTTDFTLTISSVQPEDAAVYYCQQAYSHPTFGQGTKVELKR
binds: [3] | [4] | [5] | [7] | [8]

B7: 74C8 llama-human chimeric mAb (human IgG1/lambda) (antibody, V domains shown)
VH: EVQLVESGGGLVQPGGSLRLSCAASGFTFRNYHMSWVRQVPGKGFEWISDINSAGGSTYYADSVKGRFTISRDNAKNTLYLEMNSLKPEDTALYYCARVNVWGVNYWGKGTLVSVSS
VL: QTVVTQEPSLSVSPGGTVTLTCGLSSGSVTTSNYPGWFQQTPGQAPRTLIYNTNSRHSGVPSRFSGSISGNKAALTITGAQPEDEADYYCSLYPGSYTNVFGGGTHLTVLQ
not listed: [1] | [2]
binds: all other assays above

B8: 72F8 llama-human chimeric mAb (human IgG1/lambda) (antibody, V domains shown)
VH: ELQLVESGGGLVQPGGSLRLSCAASGFTFSNYVMSWVRQAPGKGLEWVSDTNSGGSTSYADSVKGRFTISRDNAKNTLYLQMNSLKPEDTALYYCARSFFYGMNYWGKGTQVTVSS
VL: QSALTQPPSLSASPGSSVRLTCTLSSGNNIGSYDISWYQQKAGSPPRYLLNYYTDSRKHQDSGVPSRFSGSKDASANAGLLLISGLQPEDEADYYCSAYKSGSYRWVFGGGTHVTVLQ
not listed: [1] | [2]
binds: all other assays above
